The target of assay [1] is AtSSBΔC7, Agrobacterium tumefaciens SSB lacking its last seven amino acids (Agrobacterium tumefaciens strain C58). Description: cross-linking; glutaraldehyde 0.0001%, TelA with AtSSB or AtSSBΔC7, 25 mM HEPES pH 7.6, 0.1 mM EDTA, 100 mM or 200 mM NaCl, 30°C 15 min then 5 min with crosslinker; SDS-PAGE and anti-His western blot; both purified. In general terms: In western blotting, separated proteins are transferred to a membrane and probed.

Assay [2] has the same target. The assay can be described thus: native gel or EMSA; both purified. In general terms: Mobility shift assays separate free from complexed probe on a gel.

Results are given in words; binding and its absence hold for the method and conditions named.

B1: TelA, telomere resolvase from Agrobacterium tumefaciens strain C58 (enzyme, UniProt Q7CWV1 1-442)
chain: MLAAKRKTKTPVLVERIDQFVGQIKEAMKSDDASRNRKIRDLWDAEVRYHFDNGRTEKTLELYIMKYRNALKAEFGPKSTPLAICNMKKLRERLNTYIARGDYPKTGVATSIVEKIERAEFNTAGRKPTVLLRIADFIAAMNGMDAKQDMQALWDAEIAIMNGRAQTTIISYITKYRNAIREAFGDDHPMLKIATGDAAMYDEARRVKMEKIANKHGALITFENYRQVLKICEDCLKSSDPLMIGIGLIGMTGRRPYEVFTQAEFSPAPYGKGVSKWSILFNGQAKTKQGEGTKFGITYEIPVLTRSETVLAAYKRLRESGQGKLWHGMSIDDFSSETRLLLRDTVFNLFEDVWPKEELPKPYGLRHLYAEVAYHNFAPPHVTKNSYFAAILGHNNNDLETSLSYMTYTLPEDRDNALARLKRTNERTLQQMATIAPVSRKG
With B1, the binding result in assay [1] and in assay [2] was “no binding” in each case.

For the origin of these results see article PMC7861564.
